Data source: PubChem BioAssay AID504764 (Drosophila RNAi Screening Center, 2011)
The deposit covers about 22,000 reagents; shown is an unselected part of those with a known target gene and a result. In the full data, 403 (1.9%) got an active call. 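Unnormalised raw counts per well; ratio z-scores behind the hit calls and whether each hit raises or lowers signal are not deposited.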 Reagents against one gene are numbered here. Not stated in the record: the amount of reagent.

- Assay: 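Genome-wide screen for regulators of Notch-driven gene expression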 (primary screen)
- Cells: Drosophila Kc167 cells
- Reagents: long dsRNA against Drosophila genes
- Timing: about 5 days (4 days dsRNA, then 24 h after transfection)
- Treatment: transfection of constitutively active membrane-tethered Notch lacking the extracellular domain, read 24 h later
- Measurement: 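Firefly luciferase from an E(spl)m3 reporter with active Notch, plus control-promoter and uninduced reporter wells for normalisation; unnormalised counts, duplicate wells a and b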
- Direction: induced reporter light, run 1, well a and induced reporter light, run 1, well b: higher = more light from the Notch target reporter with active Notch; control promoter light, run 1, well a and control promoter light, run 1, well b: higher = more light from the viral control promoter (cell number, transfection, viability); uninduced reporter light, run 1, well a: higher = more light from the Notch target reporter without active Notch
- Call rule: 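Wells with low control signal or poorly matching duplicates excluded; duplicates averaged; per source plate, z beyond ±2 for induced/control log2 ratio or beyond ±1.8 for induced/uninduced marks a hit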
- Meaning of the calls: active = modifier hit (raised or lowered Notch signal); inactive = not a hit

| target | dsRNA no. | induced reporter light, run 1, well a | induced reporter light, run 1, well b | control promoter light, run 1, well a | control promoter light, run 1, well b | uninduced reporter light, run 1, well a | Outcome |
| --- | --- | --- | --- | --- | --- | --- | --- |
| Spn28B (Serpin 28B) | 1 | 2.14e5 | 1.83e5 | 2.33e5 | 1.79e5 | 9920 | inactive |
| CG17625 | 1 | 1.85e5 | 1.32e5 | 1.93e5 | 1.76e5 | 13375 | inactive |
| sick (sickie) | 1 | 62450 | 39490 | 53175 | 41205 | 2670 | inactive |
| sick (sickie) | 2 | 61085 | 54215 | 55155 | 1.01e5 | 4015 | inactive |
| sick (sickie) | 3 | 61630 | 50775 | 64320 | 83935 | 3810 | inactive |
| sick (sickie) | 4 | 79945 | 52535 | 70895 | 52195 | 5095 | inactive |
| sick (sickie) | 5 | 64150 | 52140 | 70775 | 65035 | 5700 | inactive |
| NT5E-2 (Ecto-5'-nucleotidase 2) | 1 | 86330 | 83870 | 1.75e5 | 1.78e5 | 7440 | inactive |
| CG7120 | 1 | 1.40e5 | 1.25e5 | 1.58e5 | 1.38e5 | 5300 | inactive |
| grn (grain) | 1 | 2750 | 2340 | 2578 | 2342 | 2860 | inactive |
| grn (grain) | 2 | 94245 | 73255 | 84800 | 58865 | 7820 | inactive |
| CG34241 | 1 | 1.77e5 | 1.81e5 | 1.35e5 | 1.54e5 | 10805 | inactive |
| CG4945 | 1 | 1.17e5 | 1.13e5 | 2.26e5 | 2.59e5 | 8675 | inactive |
| Capa (Capability) | 1 | 1.76e5 | 1.93e5 | 2.29e5 | 2.68e5 | 14895 | inactive |
| CG43689 | 1 | 6420 | 6760 | 9825 | 11328 | 3440 | inactive |
| CG31809 | 1 | 79855 | 60605 | 69205 | 72135 | 5150 | inactive |
| CG5421 | 1 | 1.39e5 | 1.30e5 | 1.27e5 | 1.62e5 | 11035 | inactive |
| fit (female-specific independent of transformer) | 1 | 1.93e5 | 1.87e5 | 2.08e5 | 2.12e5 | 17405 | inactive |
| Nup214 (Nucleoporin 214kD) | 1 | 99955 | 90120 | 57805 | 62210 | 6640 | inactive |
| mnd (minidiscs) | 1 | 1.30e5 | 1.43e5 | 1.86e5 | 2.05e5 | 8410 | inactive |
| CG42272 | 1 | 2.25e5 | 1.67e5 | 1.72e5 | 1.73e5 | 13990 | inactive |
| CG42272 | 2 | – | – | – | – | – | inactive |
| CG17154 | 1 | 1.45e5 | 1.26e5 | 1.54e5 | 1.19e5 | 8682 | inactive |
| comm3 | 1 | 1.50e5 | 1.69e5 | 1.55e5 | 1.95e5 | 6405 | inactive |
| comm3 | 2 | 1.51e5 | 1.85e5 | 2.20e5 | 1.84e5 | 8470 | inactive |
| comm3 | 3 | 1.29e5 | 1.27e5 | 1.77e5 | 1.63e5 | 7925 | inactive |
| TBPH (TAR DNA-binding protein-43 homolog) | 1 | 1.48e5 | 1.49e5 | 1.27e5 | 1.48e5 | 13925 | inactive |
| ro (rough) | 1 | 1.06e5 | 1.09e5 | 1.24e5 | 1.20e5 | 13460 | inactive |
| Or85c (Odorant receptor 85c) | 1 | 1.09e5 | 1.38e5 | 1.38e5 | 1.03e5 | 7180 | inactive |
| eIF4E6 (eukaryotic translation initiation factor 4E6) | 1 | 1.45e5 | 1.52e5 | 1.70e5 | 1.89e5 | 13225 | inactive |
| Pyroxd1 (Pyridine nucleotide-disulfide oxidoreductase domain 1) | 1 | 69780 | 47015 | 55075 | 65685 | 3175 | inactive |
| CG34205 | 1 | 42660 | 32880 | 32785 | 28245 | 2315 | inactive |
| CG34205 | 2 | – | – | – | – | – | active |
| CG14669 | 1 | 6840 | 4955 | 10215 | 9620 | 4065 | inactive |
| CG14669 | 2 | 1.83e5 | 1.66e5 | 1.50e5 | 1.24e5 | 13715 | inactive |
| CG14669 | 3 | 1.34e5 | 1.50e5 | 1.29e5 | 1.56e5 | 12080 | inactive |
| CG14669 | 4 | 98335 | 1.11e5 | 88220 | 68480 | 6915 | inactive |

Part of the list above, reformatted.
target,dsRNA no.,"induced reporter light, run 1, well a","induced reporter light, run 1, well b","control promoter light, run 1, well a","control promoter light, run 1, well b","uninduced reporter light, run 1, well a",Outcome
sick (sickie),3,61630,50775,64320,83935,3810,inactive
sick (sickie),4,79945,52535,70895,52195,5095,inactive
sick (sickie),5,64150,52140,70775,65035,5700,inactive
NT5E-2 (Ecto-5'-nucleotidase 2),1,86330,83870,1.75e5,1.78e5,7440,inactive
CG7120,1,1.40e5,1.25e5,1.58e5,1.38e5,5300,inactive
grn (grain),1,2750,2340,2578,2342,2860,inactive
